The values below come from PMC3362529.

Results are given in words; binding and its absence hold for the method and conditions named. In cells and extracts the contact can be indirect. Binding calls can cover weak binding; strength is not graded here. Where a sequence is shown, tags or fusion partners need not be part of it.

The assay has as its target T1, GFP-DmRad1 (Drosophila) (UniProt Q9VQD4).
T1 sequence: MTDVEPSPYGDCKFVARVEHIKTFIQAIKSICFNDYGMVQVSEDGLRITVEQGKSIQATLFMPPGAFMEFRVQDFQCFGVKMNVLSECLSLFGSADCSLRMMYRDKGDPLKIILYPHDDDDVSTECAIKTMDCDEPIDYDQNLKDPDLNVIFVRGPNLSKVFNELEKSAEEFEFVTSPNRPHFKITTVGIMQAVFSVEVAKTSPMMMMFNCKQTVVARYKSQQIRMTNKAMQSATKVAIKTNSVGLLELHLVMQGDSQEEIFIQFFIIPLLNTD
The experiment in a line: co-IP; HA-DmHus1, FLAG-DmRad9A and GFP-DmRad1 co-expressed in S2 cells; lysis buffer PBS, 1% Triton X-100, protease inhibitors; pre-cleared extracts incubated overnight at 4°C with anti-GFP rabbit antibodies, recovered on protein A-coated beads for 2 h at 4°C; western blots with anti-HA or …; normal rabbit IgG as negative control. A general note: In western blotting, separated proteins are transferred to a membrane and probed.

As to HA-DmHus1 (Drosophila), the binding result is “binds”.
